No constants are given. Whether binding was seen depends on the method and setting. Binding seen in cells or lysates may run through a third protein. Some binding calls cover weakened binding; strength is not graded here.
Tests used:
[1] = target: Orai1-S27A/S30A (phosphorylation-resistant mutant) (UniProt Q96D31); assay: proximity ligation; Duolink PLA in fixed, permeabilised HeLa cells expressing eYFP-O1, O1-DD or O1-AA, at rest or after ATP (10 uM) plus TG (1 uM) for 3 min; rabbit anti-Orai1 and mouse anti-IP3R2; red dots per nucleus
[2] = target: Orai1-S27D/S30D (phosphomimetic mutant) (UniProt Q96D31); assay: as above
[3] = target: eYFP-Orai1 (UniProt Q96D31); assay: as above
[4] = target: Orai1-S27A/S30A (phosphorylation-resistant mutant) (UniProt Q96D31); assay: co-IP; HeLa cells, mock or transfected, at rest or stimulated with ATP (10 uM) plus TG (1 uM) for 3 min in HEPES-buffered saline with 1.8 mM CaCl2; NP-40 lysis buffer; precipitated with 1 ug anti-Orai1 or anti-Flag and protein A agarose overnight at 4 °C; blot for IP3R; data are the ratio of IP3R signal/Orai1 signal
[5] = target: Orai1-S27D/S30D (phosphomimetic mutant) (UniProt Q96D31); assay: as above
[6] = target: endogenous Orai1 channel (human (endogenous in HeLa)) (UniProt Q96D31); assay: as above
[7] = target: wild type Orai1 channel (O1-wt), overexpressed (UniProt Q96D31); assay: as above

Protein sequences, listed by entry. Tags and fused reporters are not part of them. Lines headed by an entry give the natural chain unless they say otherwise; changes in a name come on top.
UniProt Q96D31: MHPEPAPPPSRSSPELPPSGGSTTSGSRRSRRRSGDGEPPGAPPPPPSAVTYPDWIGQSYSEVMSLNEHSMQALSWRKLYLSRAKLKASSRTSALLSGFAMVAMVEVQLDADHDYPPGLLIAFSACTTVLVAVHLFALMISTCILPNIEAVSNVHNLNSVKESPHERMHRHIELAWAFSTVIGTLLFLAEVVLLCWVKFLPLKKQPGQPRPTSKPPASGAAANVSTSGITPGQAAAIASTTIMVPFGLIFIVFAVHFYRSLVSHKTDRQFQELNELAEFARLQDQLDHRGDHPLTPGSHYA
UniProt Q14571: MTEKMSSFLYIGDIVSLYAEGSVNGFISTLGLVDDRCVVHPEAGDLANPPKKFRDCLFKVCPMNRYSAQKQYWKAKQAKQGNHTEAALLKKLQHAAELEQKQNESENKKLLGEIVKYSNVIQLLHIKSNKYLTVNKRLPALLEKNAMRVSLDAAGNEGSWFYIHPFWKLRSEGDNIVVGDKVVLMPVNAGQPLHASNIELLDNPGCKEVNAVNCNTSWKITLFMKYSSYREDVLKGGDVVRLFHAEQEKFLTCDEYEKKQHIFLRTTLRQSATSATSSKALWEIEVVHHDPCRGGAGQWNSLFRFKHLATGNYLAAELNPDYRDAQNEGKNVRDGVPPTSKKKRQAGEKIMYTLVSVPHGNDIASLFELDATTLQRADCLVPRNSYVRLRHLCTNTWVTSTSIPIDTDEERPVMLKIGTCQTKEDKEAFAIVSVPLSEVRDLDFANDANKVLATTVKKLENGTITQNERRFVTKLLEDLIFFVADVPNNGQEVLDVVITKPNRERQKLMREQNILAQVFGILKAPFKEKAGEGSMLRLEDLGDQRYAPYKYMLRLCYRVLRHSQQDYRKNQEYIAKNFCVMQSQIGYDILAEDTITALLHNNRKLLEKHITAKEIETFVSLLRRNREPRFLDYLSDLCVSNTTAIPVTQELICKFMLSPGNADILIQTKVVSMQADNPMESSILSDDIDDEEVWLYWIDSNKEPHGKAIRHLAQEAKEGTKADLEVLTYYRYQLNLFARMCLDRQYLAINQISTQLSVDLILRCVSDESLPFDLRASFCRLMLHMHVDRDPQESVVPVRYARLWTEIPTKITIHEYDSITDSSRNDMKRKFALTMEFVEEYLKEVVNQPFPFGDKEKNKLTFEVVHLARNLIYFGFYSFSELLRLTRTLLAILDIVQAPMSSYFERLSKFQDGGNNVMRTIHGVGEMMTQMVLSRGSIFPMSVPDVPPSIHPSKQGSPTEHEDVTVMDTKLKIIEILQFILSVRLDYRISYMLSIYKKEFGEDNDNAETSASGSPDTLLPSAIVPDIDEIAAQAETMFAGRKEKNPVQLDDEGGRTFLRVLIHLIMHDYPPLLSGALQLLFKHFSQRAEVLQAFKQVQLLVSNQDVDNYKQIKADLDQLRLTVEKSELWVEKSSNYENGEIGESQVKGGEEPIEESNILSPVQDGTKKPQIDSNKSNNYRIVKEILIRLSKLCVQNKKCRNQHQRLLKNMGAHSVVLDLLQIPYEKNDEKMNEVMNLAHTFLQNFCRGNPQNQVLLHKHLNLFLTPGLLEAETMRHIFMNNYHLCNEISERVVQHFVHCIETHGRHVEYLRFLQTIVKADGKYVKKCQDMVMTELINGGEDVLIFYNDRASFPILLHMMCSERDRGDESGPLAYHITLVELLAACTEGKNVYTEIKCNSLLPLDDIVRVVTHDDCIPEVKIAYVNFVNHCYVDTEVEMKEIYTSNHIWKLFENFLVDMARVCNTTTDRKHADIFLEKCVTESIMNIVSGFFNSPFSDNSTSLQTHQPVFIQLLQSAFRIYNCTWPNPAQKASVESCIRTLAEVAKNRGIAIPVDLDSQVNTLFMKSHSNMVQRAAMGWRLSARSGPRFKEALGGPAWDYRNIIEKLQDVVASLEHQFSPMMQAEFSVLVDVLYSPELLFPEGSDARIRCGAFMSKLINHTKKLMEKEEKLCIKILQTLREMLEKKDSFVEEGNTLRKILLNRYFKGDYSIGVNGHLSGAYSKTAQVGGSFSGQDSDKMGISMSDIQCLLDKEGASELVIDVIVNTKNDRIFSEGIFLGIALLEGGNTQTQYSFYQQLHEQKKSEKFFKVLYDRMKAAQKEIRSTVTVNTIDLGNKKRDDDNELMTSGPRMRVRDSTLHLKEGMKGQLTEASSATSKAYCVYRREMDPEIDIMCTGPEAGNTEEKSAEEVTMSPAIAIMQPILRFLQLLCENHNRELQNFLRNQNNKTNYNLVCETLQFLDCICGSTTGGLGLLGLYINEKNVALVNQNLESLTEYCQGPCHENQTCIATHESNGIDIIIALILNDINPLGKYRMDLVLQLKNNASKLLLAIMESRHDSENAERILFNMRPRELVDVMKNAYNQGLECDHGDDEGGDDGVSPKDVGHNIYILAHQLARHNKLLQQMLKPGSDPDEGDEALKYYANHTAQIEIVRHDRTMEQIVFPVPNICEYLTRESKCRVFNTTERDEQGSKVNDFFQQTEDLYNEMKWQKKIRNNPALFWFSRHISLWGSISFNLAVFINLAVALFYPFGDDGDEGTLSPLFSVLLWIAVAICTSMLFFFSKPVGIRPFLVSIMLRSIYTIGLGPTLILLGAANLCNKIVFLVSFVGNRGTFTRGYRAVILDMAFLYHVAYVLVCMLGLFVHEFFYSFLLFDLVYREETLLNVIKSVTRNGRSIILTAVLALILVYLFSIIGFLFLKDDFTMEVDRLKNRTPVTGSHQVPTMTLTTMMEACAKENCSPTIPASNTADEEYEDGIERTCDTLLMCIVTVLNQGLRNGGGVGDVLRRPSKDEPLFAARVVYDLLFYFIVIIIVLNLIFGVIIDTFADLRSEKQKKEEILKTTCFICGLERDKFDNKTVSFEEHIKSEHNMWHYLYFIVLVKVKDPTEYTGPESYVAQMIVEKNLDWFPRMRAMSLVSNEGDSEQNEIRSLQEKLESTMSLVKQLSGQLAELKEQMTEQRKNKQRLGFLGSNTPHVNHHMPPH

- binding [1]: binds
- binding [2]: binds
- binding [3]: binds
- binding [4]: binds
- binding [5]: binds
- binding [6]: binds
- binding [7]: binds
Substance: IP3R2 (from UniProt Q14571 1-2701) (receptor)

From PMC9266177
